Data from article PMC9586991.
These are yes or no findings as the source states them, for the method shown. In cells and extracts the contact can be indirect. Binding can be weak; no strength is given. Where a sequence is shown, tags or fusion partners need not be part of it.

Target: T1, FLAG-Rab44 expressed in B16-F1 melanoma cells (mouse) (UniProt Q8CB87)
T1 sequence: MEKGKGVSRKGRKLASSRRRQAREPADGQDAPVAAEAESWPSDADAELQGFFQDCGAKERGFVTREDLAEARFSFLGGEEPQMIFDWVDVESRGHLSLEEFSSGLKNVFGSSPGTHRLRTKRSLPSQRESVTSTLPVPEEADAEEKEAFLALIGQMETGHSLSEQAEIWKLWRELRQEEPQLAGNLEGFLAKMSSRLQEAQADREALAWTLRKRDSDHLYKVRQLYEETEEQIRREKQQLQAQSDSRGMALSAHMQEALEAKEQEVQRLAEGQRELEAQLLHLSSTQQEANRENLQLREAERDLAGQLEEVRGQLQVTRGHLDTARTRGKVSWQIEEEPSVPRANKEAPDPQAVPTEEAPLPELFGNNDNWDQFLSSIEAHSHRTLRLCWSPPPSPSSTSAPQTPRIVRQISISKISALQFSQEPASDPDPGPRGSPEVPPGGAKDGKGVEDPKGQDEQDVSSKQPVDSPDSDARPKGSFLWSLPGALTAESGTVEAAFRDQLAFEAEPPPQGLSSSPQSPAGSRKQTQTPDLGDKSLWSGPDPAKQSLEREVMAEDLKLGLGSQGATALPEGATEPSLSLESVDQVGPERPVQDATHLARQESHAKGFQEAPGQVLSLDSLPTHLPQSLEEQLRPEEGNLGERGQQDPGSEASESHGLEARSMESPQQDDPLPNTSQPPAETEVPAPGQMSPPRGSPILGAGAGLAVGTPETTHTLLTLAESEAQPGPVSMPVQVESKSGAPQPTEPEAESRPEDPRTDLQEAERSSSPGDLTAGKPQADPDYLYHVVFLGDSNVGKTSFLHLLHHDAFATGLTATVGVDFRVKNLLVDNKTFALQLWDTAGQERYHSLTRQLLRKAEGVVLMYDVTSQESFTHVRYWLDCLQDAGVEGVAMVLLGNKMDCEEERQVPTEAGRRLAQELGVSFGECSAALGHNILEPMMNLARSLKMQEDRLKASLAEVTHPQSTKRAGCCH
Assay: co-IP; B16-F1 cells transfected for 2 days with pEF-FLAG-Rab44; lysates with anti-FLAG agarose beads 16 h at 4 °C; immunoblot for the endogenous proteins

## endogenous dynein heavy chain (mouse (endogenous in B16-F1))
  binding: binds
